{"source": "patent US20190136259A1", "assay_in_all_cases": "self-oligomerization with SUV liposomes and trypsin, western blot of membrane pellet (data not shown)", "key": {"[1]": {"molecular_target": "Cyt1Aa (SEQ ID NO: 2) (Bacillus thuringiensis) (UniProt P0A382)"}, "[2]": {"molecular_target": "Cyt1Aa-A61C variant (SEQ ID NO: 6) (Bacillus thuringiensis) (UniProt P0A382)"}, "[3]": {"molecular_target": "Cyt1Aa-A59C variant (SEQ ID NO: 4) (Bacillus thuringiensis) (UniProt P0A382)"}}, "note": "No constants are given. Whether binding was seen depends on the method and setting. Some results given as binding are weak or reduced against the parent protein; the word gives no strength."}
{"binder": "Cyt1Aa (SEQ ID NO: 2) (protein) MENLNHCPLEDIKVNPWKTPQSTARVITLRVEDPNEINNLLSINEIDNPNYILQAIMLANAFQNALVPTSTDFGDALRFSMPKGLEIANTITPMGAVVSYVDQNVTQTNNQVSVMINKVLEVLKTVLGVALSGSVIDQLTAAVTNTFTNLNTQKNEAWIFWGKETANQTNYTYNVLFAIQNAQTGGVMYCVPVGFEIKVSAVKEQVLFFTIQDSASYNVNIQSLKFAQPLVSSSQYPIADLTSAINGTL", "values": [{"measurement": "binding", "setting": "[1]", "value": "binds"}]}
{"binder": "Cyt1Aa-A61C variant (SEQ ID NO: 6) (protein) MENLNHCPLEDIKVNPWKTPQSTARVITLRVEDPNEINNLLSINEIDNPNYILQAIMLANCFQNALVPTSTDFGDALRFSMPKGLEIANTITPMGAVVSYVDQNVTQTNNQVSVMINKVLEVLKTVLGVALSGSVIDQLTAAVTNTFTNLNTQKNEAWIFWGKETANQTNYTYNVLFAIQNAQTGGVMYCVPVGFEIKVSAVKEQVLFFTIQDSASYNVNIQSLKFAQPLVSSSQYPIADLTSAINGTL", "values": [{"measurement": "binding", "setting": "[2]", "value": "binds"}]}
{"binder": "Cyt1Aa-A59C variant (SEQ ID NO: 4) (protein) MENLNHCPLEDIKVNPWKTPQSTARVITLRVEDPNEINNLLSINEIDNPNYILQAIMLCNAFQNALVPTSTDFGDALRFSMPKGLEIANTITPMGAVVSYVDQNVTQTNNQVSVMINKVLEVLKTVLGVALSGSVIDQLTAAVTNTFTNLNTQKNEAWIFWGKETANQTNYTYNVLFAIQNAQTGGVMYCVPVGFEIKVSAVKEQVLFFTIQDSASYNVNIQSLKFAQPLVSSSQYPIADLTSAINGTL", "values": [{"measurement": "binding", "setting": "[3]", "value": "binds"}]}
